# Test results published in PubChem BioAssay AID1346428 (National Center for Advancing Translational Sciences (NCATS), 2018).
# By UniProt entry, the sequences of proteins in these tests, tags left out.
# UniProt O75388, whole entry: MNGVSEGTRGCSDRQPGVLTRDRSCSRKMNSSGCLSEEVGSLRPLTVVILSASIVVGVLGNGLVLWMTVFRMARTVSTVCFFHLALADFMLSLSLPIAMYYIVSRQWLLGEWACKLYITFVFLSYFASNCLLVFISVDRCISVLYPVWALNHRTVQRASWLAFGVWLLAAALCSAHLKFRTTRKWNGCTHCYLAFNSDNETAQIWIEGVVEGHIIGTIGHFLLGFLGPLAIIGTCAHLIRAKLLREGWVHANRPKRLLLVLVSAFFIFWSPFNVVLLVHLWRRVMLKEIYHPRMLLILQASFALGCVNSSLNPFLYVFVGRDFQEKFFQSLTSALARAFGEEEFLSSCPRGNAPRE
# The campaign covered roughly 48,000 compounds. About 1,200 (2.5%) were called active. The source calls these results inconclusive, neither active nor inactive.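 How the source made its calls: active means activation of at least 60% and not above a set upper limit (about 1 call in 100 departs from these limits); inconclusive means activation of 40% to 60%, or above that upper limit; inactive means activation under 40%.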
# Target: Probable G-protein coupled receptor 32 (Homo sapiens) (UniProt O75388)
# Assay: qHTS for Agonists of Human Resolvin D1 Receptor DRV1; further: 0% is about no effect
# Conditions: CHO-K1 GPR32 beta-arrestin PathHunter luminescence, 90 min; at 76.9 µM; stronger effect = higher value; zero percent set by DMSO-only wells
row,SMILES,activation
1,Cc1cccc([N+](=O)[O-])c1[N+](=O)[O-],inconclusive: 171%
